Assay: general procedure: solution-phase peptide synthesis; DEPC with triethylamine or diisopropylethylamine (general procedure C); DCC/DMAP

| Substance | step yield (late stage modification step) [%] | step yield (coupling step) [%] |
| --- | --- | --- |
| N,N-dimethyl-L-valyl-N-[(1S,2R)-4-[(2S)-2-[(1R,2R)-3-[[(1R)-2-oxo-1-methyl-2-phenylethyl]amino]-1-methoxy-2-methyl-3-oxopropyl]-1-pyrrolidinyl]-2-methoxy-1-[(1S)-1-methylpropyl]-4-oxobutyl]-N-methyl-L-valinamide | 64 |  |
| N,N-dimethyl-L-valyl-N-[(1S,2R)-4-[(2S)-2-[(1R,2R)-3-[[(1R,2S)-2-hydroxy-1-methyl-2-phenylethyl]amino]-1-methoxy-2-methyl-3-oxopropyl]-1-pyrrolidinyl]-2-methoxy-1-[(1S)-1-methylpropyl]-4-oxobutyl]-N-methyl-L-isoleucinamide |  | 60 |
| N-methyl-L-valyl-N-[(1S,2R)-4-[(2S)-2-[(1R,2R)-3-[[(1R,2S)-2-hydroxy-1-methyl-2-phenylethyl]amino]-1-methoxy-2-methyl-3-oxopropyl]-1-pyrrolidinyl]-2-methoxy-1-[(1S)-1-methylpropyl]-4-oxobutyl]-N-methyl-L-valinamide | 95 |  |
| N-methyl-L-valyl-N-[(1S,2R)-4-[(2g)-2-[(1R,2R)-3-[[(1R,2S)-2-hydroxy-1-methyl-2-phenylethyl]amino]-1-methoxy-2-methyl-3-oxopropyl]-1-pyrrolidinyl]-2-methoxy-1-[(1S)-1-methylpropyl]-4-oxobutyl]-N-methyl-L-valinamide | 38 |  |

— US7256257B2 (priority 2001, dated 2007)
